Experimental data: patent US10172994B2, “Hemodiafiltration method” (Fresenius Medical Care Deutschland GmbH, priority 2012, dated 2019)
Values joined by “and” are separate entries in the source; they are usually repeats but may differ in a detail not shown here. Equal entries are not always repeated. Structures can show the parent of a compound that is named as a salt.

System: protein bond
Experiment: Frequencies of the HF (E) field with maximum separation effect for protein-bound uremic toxins
Format: in vitro ADME
Conditions: E field bands 80-120 MHz and 120-170 MHz

SMILES | Suitable frequencies in the HF field (E field): ranges at which the maximum separation effect was determined
O=S(=O)(O)Oc1c[nH]c2ccccc12 [IDS, indoxyl sulfate] | 110 MHz and 110-111 MHz and 111 MHz and 140-141 MHz
Cc1ccc(OS(=O)(=O)O)cc1 [pCRS] | 151-152 MHz and 110 MHz and 110-111 MHz and 111 MHz and 140-141 MHz
